Source: patent US8252764B2, “Compositions and methods of use of targeting peptides against placenta and adipose tissues” (priority 2000, dated 2012)

Tested on: mouse placenta
Assay: In vivo biopanning of phage display library in pregnant mice with post-clearing (clone frequency)
Details: for frequency of phage clone in round III: round III of in vivo biopanning on placenta; for frequency of phage clone in round IV: after post-clearing in non-pregnant mouse

Row | Substance | frequency of phage clone in round III | frequency of phage clone in round IV
1 | LGLRSVG | < 1% | 5.3%
2 | RAPGGVR | < 1% | 8.5%
3 | RMDGPVR | 3.1% | 8.5%
4 | TPKTSVT [placenta targeting peptide] | 7.4% | 8.5%
5 | VGLHARA | 4.2% | 7.4%
6 | YIRPFTL | 2.1% | 5.3%
